Earlier results in US20090178587A9, “Control of biofilms in industrial water systems” (priority 2001, published 2009).
Some of these results come from one statement about several compounds together. At least one compound was matched to its structure with a doubt left.

Test system: planktonic organisms
Conditions: 0.5 ppm total residual as Cl2; after 1 hour; cited from earlier work

Question: With `CCC1(C)C(=O)N(Cl)C(=O)N1Br` (stereo not shown) [BrMEH, bromo-chloro-methylethylhydantoin] as the compound, how does the “log reductions in planktonic organisms” value read?
Answer: > 4 log
